# According to PubChem BioAssay AID248 (DTP/NCI, 2004):
# The list does not hold the whole screen: it gathers tests that were run many times, whatever their T/C, doses with no T/C, and many T/C values between a quarter and a half above the control. Further doses and runs are listed elsewhere. T/C gives the treated animals as a percentage of the vehicle group. Some entries give survivors of the animals treated and no T/C: the source holds a T/C of zero for them, seemingly a mark for toxic or unscored doses. Some doses without a T/C left all or most animals alive at the check, yet need not have been tolerated: the source hardly ever lists a survival T/C far under the control, and the zero likely stands for such cases as well. Survivors were counted at the toxicity check, usually on the fifth day, unless a day is given; later deaths do not show. Schedules are NCI's codes, taken here to give the interval after Q, in days (D) or hours (H), and the number of doses after X. Some schedules carry Z or #; the key to these is not given. Where survival is the endpoint, the PubChem record calls one and a half times the control and up active, and a quarter to a half above the control has no call in these data; cut-offs in other NCI protocols can differ.
# System: L1210 leukemia ip in BDF1 mice, survival T/C
# Test: NCI In Vivo Anticancer Drug Screen. Data for tumor model L1210 Leukemia (intraperitoneal) in B6D2F1 (BDF1) mice
# Conditions: T/C endpoint: mean survival time, higher T/C = longer survival
# [1] = dose: 100.0 mg/kg/injection, schedule: Q04DX003 (ip), vehicle: Klucel (hydroxypropylcellulose) (HPC)
# [2] = dose: 100.0 mg/kg/injection, schedule: Q01DX009 (ip), vehicle: Klucel (hydroxypropylcellulose) (HPC)
# [3] = dose: 200.0 mg/kg/injection, schedule: Q04DX003 (ip), vehicle: Klucel (hydroxypropylcellulose) (HPC)
# [4] = dose: 400.0 mg/kg/injection, schedule: Q04DX003 (ip), vehicle: Klucel (hydroxypropylcellulose) (HPC)
# [5] = dose: 300.0 mg/kg/injection, schedule: Q01DX001 (ip), vehicle: saline
# [6] = dose: 200.0 mg/kg/injection, schedule: Q01DX009 (ip), vehicle: saline
# [7] = dose: 400.0 mg/kg/injection, schedule: Q01DX009 (ip), vehicle: saline
# [8] = dose: 400.0 mg/kg/injection, schedule: Q01DX009 (ip), vehicle: saline with Tween-80
# [9] = dose: 400.0 mg/kg/injection, schedule: Q04DX003 (ip), vehicle: saline with Tween-80
# [10] = dose: 400.0 mg/kg/injection, schedule: Q04DX002 (ip), vehicle: saline
# [11] = dose: 400.0 mg/kg/injection, schedule: Q01DX001 (ip), vehicle: saline
# [12] = dose: 200.0 mg/kg/injection, schedule: Q04DX002 (ip), vehicle: Klucel (hydroxypropylcellulose) (HPC)
# [13] = dose: 200.0 mg/kg/injection, schedule: Q04DX003 (ip), vehicle: saline with Tween-80
# [14] = dose: 100.0 mg/kg/injection, schedule: Q01DX009 (ip), vehicle: saline
# [15] = dose: 400.0 mg/kg/injection, schedule: Q04DX002 (ip), vehicle: saline with Tween-80
# [16] = dose: 400.0 mg/kg/injection, schedule: Q01DX009 (ip), vehicle: Klucel (hydroxypropylcellulose) (HPC)
compound,measurement,setting,value
CC1CC(O)C([N+](=O)[O-])C(O)C1 (configuration not stated),T/C,"dose: 25.0 mg/kg/injection, schedule: Q01DX009 (ip), vehicle: saline",132 % of control
same,survivor count,"dose: 50.0 mg/kg/injection, schedule: Q01DX009 (ip), vehicle: saline",1 of 6
O=C1COc2ccccc2N1,survivor count,"dose: 400.0 mg/kg/injection, schedule: Q01DX001 (ip), vehicle: other",0 of 6
Cc1c2ccncc2cc2c3ccccc3n(CCO)c12,survivor count,[1],6 of 6
Cc1cccc(C)c1NC(=O)Nc1ccc(S(N)(=O)=O)cc1,survivor count,[2],6 of 6
CC(=O)OC(C[N+](=O)[O-])C(Cl)(Cl)Cl (configuration not stated),survivor count,"dose: 50.0 mg/kg/injection, schedule: Q04DX003 (ip), vehicle: Klucel (hydroxypropylcellulose) (HPC)",1 of 6
same,survivor count,[1],1 of 6
same,survivor count,[3],0 of 6
same,survivor count,[4],1 of 6
O=C1NC(=O)/C(=C/c2ccco2)N1,survivor count,[4],6 of 6
CCCC(C)NCCOC(=O)c1ccc(N)cc1 (configuration not stated),survivor count,"dose: 150.0 mg/kg/injection, schedule: Q01DX001 (ip), vehicle: saline",2 of 6
same,survivor count,[5],0 of 6
Nc1ncnn1C(=S)NCc1ccccc1,survivor count,[6],6 of 6
same,survivor count,[7],5 of 6
Cc1ccc(C(C)(C)C)c(OCC2=NCCN2)c1,survivor count,[1],3 of 6
same,survivor count,[3],0 of 6
same,survivor count,[4],0 of 6
CC(=O)NC1CCCCCC1I (configuration not stated),survivor count,"dose: 75.0 mg/kg/injection, schedule: Q01DX001 (ip), vehicle: acetone",0 of 6
same,survivor count,"dose: 150.0 mg/kg/injection, schedule: Q01DX001 (ip), vehicle: acetone",0 of 6
same,survivor count,"dose: 300.0 mg/kg/injection, schedule: Q01DX001 (ip), vehicle: acetone",0 of 6
COc1ccc(C(O)C(C)N)cc1 (configuration not stated),survivor count,[5],3 of 6
Cc1c(Cl)cccc1NC(=O)CCl,survivor count,[8],0 of 6
O=C1c2ccccc2C(=O)N1CCc1ccccn1,survivor count,[9],1 of 6
CCC(C)(O)C(=O)O (configuration not stated),survivor count,[10],1 of 3
COc1ccccc1OCCOCCNC1CC2CCC1(C)C2(C)C (configuration not stated),survivor count,[3],0 of 6
same,survivor count,[4],0 of 6
CCN(CC)CCNCc1ccc(Cl)cc1,survivor count,"dose: 150.0 mg/kg/injection, schedule: Q04DX003 (ip), vehicle: Klucel (hydroxypropylcellulose) (HPC)",3 of 6
same,survivor count,"dose: 300.0 mg/kg/injection, schedule: Q04DX003 (ip), vehicle: Klucel (hydroxypropylcellulose) (HPC)",0 of 6
CC1Nc2ccccc2NC1C (configuration not stated),survivor count,"dose: 200.0 mg/kg/injection, schedule: Q01DX001 (ip), vehicle: saline",1 of 6
same,survivor count,[11],0 of 6
O=C(CC(NC(=O)OCc1ccccc1)C(=O)OCc1ccccc1)OCc1ccccc1 (configuration not stated),survivor count,[2],6 of 6
CC1CCC2C(C)C3C(CC4C5CC=C6CC(OC7OC(COC8OC(CO)C(OC9OC(C)C(O)C(O)C9O)C(O)C8O)C(O)C(O)C7O)CCC6(C)C5CCC43C)N2C1 (configuration not stated),survivor count,[12],3 of 3
O=C(Nc1ccc(CCNC2=NCCN2)cc1)c1ccc(C(=O)Nc2ccc(CCNC3=NCCN3)cc2)cc1,T/C,"dose: 2.0 mg/kg/injection, schedule: Q01DX Z (ip), vehicle: water",137 % of control
same,survivor count,"dose: 30.0 mg/kg/injection, schedule: Q01DX Z (ip), vehicle: water",0 of 6
NC(N)=N/N=C\c1ccc2ccccc2c1,survivor count,[13],6 of 6
COC(=O)c1cn(C2OC(CO)C(O)C2O)c2ncnc(N)c12 (configuration not stated),survivor count,"dose: 80.0 mg/kg/injection, schedule: Q01DX001 (ip), vehicle: water",6 of 6
CCCCCCCCOc1ccccn1,survivor count,[8],6 of 6
NC(=O)c1c[n+]([O-])ccn1,survivor count,[11],3 of 6
CC1=C/C(=N/N(C)C)CC(C)C1 (configuration not stated),survivor count,[14],2 of 6
same,survivor count,[6],4 of 6
same,survivor count,[7],0 of 6
CCCCCCCCSCC(=O)O,survivor count,[9],1 of 6
FCc1nc2nc(Cl)c(Cl)nc2[nH]1,survivor count,[14],4 of 6
same,survivor count,[6],0 of 6
same,survivor count,"dose: 300.0 mg/kg/injection, schedule: Q01DX009 (ip), vehicle: saline",0 of 6
same,survivor count,"dose: 400.0 mg/kg/injection, schedule: Q04DX003 (ip), vehicle: saline",5 of 6
CCCCCCCCC(=O)N1CCN(C)CC1,survivor count,"dose: 200.0 mg/kg/injection, schedule: Q04DX002 (ip), vehicle: saline",1 of 3
same,survivor count,[10],0 of 3
O=S(=O)(F)c1c(Cl)cccc1CBr,survivor count,"dose: 100.0 mg/kg/injection, schedule: Q01DX009 (ip), vehicle: saline with Tween-80",5 of 6
same,survivor count,"dose: 200.0 mg/kg/injection, schedule: Q01DX009 (ip), vehicle: saline with Tween-80",5 of 6
same,survivor count,[8],2 of 6
CCCC(C)c1ccccc1O (configuration not stated),survivor count,[13],4 of 6
same,survivor count,[9],3 of 6
Clc1ccc([I+]c2ccc(Cl)cc2)cc1,survivor count,"dose: 100.0 mg/kg/injection, schedule: Q04DX002 (ip), vehicle: saline with Tween-80",1 of 3
same,survivor count,"dose: 200.0 mg/kg/injection, schedule: Q04DX002 (ip), vehicle: saline with Tween-80",0 of 3
same,survivor count,[15],0 of 3
CC1CC(C#N)C(CCC#N)CC1C (configuration not stated),survivor count,[16],0 of 6
O=C1C=C(c2ccccc2)C(c2ccccc2)C1O (configuration not stated),survivor count,"dose: 300.0 mg/kg/injection, schedule: Q01DX001 (ip), vehicle: other",2 of 6
O=C(c1ccccc1)c1c(-c2ccccc2)c(-c2ccccc2)n(-c2ccccc2)c1C(=O)c1ccccc1,survivor count,"dose: 75.0 mg/kg/injection, schedule: Q01DX001 (ip), vehicle: carboxymethylcellulose (CMC)",4 of 4
O=C(Nc1cccc(C2=NCCN2)c1)c1cccc(C(=O)Nc2cccc(C3=NCCN3)c2)c1,survivor count,"dose: 125.0 mg/kg/injection, schedule: Q01DX Z (ip), vehicle: carboxymethylcellulose (CMC)",2 of 6
same,survivor count,"dose: 250.0 mg/kg/injection, schedule: Q01DX Z (ip), vehicle: carboxymethylcellulose (CMC)",0 of 6
CC(C)(C)SCC#CCSC(C)(C)C,survivor count,[15],3 of 3
CCN(CC)c1ccc(C2NC(=O)c3ccccc3N2)cc1 (configuration not stated),T/C,[2],129 % of control
Cc1ccc(C(SCC(N)C(=O)O)(c2ccccc2)c2ccccc2)cc1 (configuration not stated),T/C,"dose: 6.5 mg/kg/injection, schedule: Q01DX009 (ip), vehicle: saline",140 % of control
same,survivor count,"dose: 100.0 mg/kg/injection, schedule: Q01DX009 (ip), vehicle: other",5 of 6
same,survivor count,[14],7 of 10
same,survivor count,"dose: 200.0 mg/kg/injection, schedule: Q01DX009 (ip), vehicle: other",4 of 6
C[N+](C)(C)CCBr,survivor count,"dose: 50.0 mg/kg/injection, schedule: Q04DX003 (ip), vehicle: saline",5 of 6
same,survivor count,"dose: 100.0 mg/kg/injection, schedule: Q04DX003 (ip), vehicle: saline",2 of 6
same,survivor count,"dose: 200.0 mg/kg/injection, schedule: Q04DX003 (ip), vehicle: saline",0 of 6
O=C1CCc2cccc(O)c2N1,survivor count,[11],2 of 4
COc1ccc(/C(=N\N=C(N)N)C2CC2)cc1,survivor count,"dose: 240.0 mg/kg/injection, schedule: Q01DX Z (oral), vehicle: carboxymethylcellulose (CMC)",1 of 6
same,survivor count,"dose: 480.0 mg/kg/injection, schedule: Q01DX Z (oral), vehicle: carboxymethylcellulose (CMC)",0 of 6
same,survivor count,"dose: 960.0 mg/kg/injection, schedule: Q01DX Z (oral), vehicle: carboxymethylcellulose (CMC)",0 of 6
OC1C2CCN(CC2)C1C(c1ccccc1)c1ccc(F)cc1 (configuration not stated),survivor count,"dose: 400.0 mg/kg/injection, schedule: Q04DX002 (ip), vehicle: Klucel (hydroxypropylcellulose) (HPC)",0 of 3
CCNC(c1ccccc1)C(O)c1ccccc1 (configuration not stated),survivor count,[12],2 of 3
same,survivor count,[16],0 of 6
